Laboratory results published in publication PMC9640623.
Construct, isoform or probe ends are uncertain for at least one entry. For some assays here: Where cells or extracts were used, other partners may take part. For some assays here: A negative result means that nothing was seen under these conditions. For some assays here: The comparison behind a weaker result is the experiment's own reference, which may not be listed here.

Protein sequences, listed by entry. Tags and fused reporters are not part of them. Lines headed by an entry give the natural chain unless they say otherwise; changes in a name come on top. Chains listed by the source or under a name are the forms on record and can include a tag or linker. Residues count along the entry.
UniProt Q9Y3Z3, other isoform, or with tags, fused parts or gaps: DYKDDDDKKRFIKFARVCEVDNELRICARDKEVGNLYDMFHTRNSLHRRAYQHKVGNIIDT
UniProt Q9Y3Z3, 300-465: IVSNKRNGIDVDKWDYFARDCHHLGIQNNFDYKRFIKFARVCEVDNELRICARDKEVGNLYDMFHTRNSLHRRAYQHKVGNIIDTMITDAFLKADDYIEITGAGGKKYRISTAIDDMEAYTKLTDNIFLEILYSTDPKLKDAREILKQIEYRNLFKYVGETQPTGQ
UniProt Q9Y3Z3, whole entry K354Q: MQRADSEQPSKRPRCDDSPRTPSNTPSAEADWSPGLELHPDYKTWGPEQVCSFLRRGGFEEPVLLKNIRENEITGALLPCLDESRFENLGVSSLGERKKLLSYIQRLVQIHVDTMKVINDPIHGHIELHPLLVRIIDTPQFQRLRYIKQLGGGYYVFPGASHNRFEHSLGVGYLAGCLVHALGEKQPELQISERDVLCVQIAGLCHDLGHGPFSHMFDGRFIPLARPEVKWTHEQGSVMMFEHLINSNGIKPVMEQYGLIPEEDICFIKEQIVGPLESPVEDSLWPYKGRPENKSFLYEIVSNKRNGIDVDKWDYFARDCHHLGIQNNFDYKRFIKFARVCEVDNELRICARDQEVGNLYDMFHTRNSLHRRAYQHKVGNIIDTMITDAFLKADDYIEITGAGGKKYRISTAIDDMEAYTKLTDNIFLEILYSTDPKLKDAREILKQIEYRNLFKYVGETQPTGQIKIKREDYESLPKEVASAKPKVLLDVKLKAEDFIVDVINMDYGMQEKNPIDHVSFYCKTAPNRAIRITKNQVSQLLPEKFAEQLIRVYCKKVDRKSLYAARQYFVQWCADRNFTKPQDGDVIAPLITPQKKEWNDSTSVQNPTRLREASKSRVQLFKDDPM
UniProt Q9Y3Z3, whole entry K354R: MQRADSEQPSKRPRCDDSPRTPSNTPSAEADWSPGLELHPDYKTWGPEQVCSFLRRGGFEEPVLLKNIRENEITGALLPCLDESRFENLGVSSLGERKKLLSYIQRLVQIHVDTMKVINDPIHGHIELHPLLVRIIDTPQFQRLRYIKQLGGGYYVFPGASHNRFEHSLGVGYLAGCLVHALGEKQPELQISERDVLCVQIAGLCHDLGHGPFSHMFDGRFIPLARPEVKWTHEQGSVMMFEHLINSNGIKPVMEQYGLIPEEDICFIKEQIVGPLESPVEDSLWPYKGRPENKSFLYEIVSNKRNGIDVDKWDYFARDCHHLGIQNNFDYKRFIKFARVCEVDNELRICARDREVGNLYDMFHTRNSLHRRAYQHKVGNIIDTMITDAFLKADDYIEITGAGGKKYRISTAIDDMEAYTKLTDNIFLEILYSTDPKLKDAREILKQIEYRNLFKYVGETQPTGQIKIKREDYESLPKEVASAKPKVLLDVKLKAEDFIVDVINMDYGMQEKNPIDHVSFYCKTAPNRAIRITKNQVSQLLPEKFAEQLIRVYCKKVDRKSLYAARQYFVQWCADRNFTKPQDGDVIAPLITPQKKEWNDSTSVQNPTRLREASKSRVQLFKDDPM
UniProt Q99708: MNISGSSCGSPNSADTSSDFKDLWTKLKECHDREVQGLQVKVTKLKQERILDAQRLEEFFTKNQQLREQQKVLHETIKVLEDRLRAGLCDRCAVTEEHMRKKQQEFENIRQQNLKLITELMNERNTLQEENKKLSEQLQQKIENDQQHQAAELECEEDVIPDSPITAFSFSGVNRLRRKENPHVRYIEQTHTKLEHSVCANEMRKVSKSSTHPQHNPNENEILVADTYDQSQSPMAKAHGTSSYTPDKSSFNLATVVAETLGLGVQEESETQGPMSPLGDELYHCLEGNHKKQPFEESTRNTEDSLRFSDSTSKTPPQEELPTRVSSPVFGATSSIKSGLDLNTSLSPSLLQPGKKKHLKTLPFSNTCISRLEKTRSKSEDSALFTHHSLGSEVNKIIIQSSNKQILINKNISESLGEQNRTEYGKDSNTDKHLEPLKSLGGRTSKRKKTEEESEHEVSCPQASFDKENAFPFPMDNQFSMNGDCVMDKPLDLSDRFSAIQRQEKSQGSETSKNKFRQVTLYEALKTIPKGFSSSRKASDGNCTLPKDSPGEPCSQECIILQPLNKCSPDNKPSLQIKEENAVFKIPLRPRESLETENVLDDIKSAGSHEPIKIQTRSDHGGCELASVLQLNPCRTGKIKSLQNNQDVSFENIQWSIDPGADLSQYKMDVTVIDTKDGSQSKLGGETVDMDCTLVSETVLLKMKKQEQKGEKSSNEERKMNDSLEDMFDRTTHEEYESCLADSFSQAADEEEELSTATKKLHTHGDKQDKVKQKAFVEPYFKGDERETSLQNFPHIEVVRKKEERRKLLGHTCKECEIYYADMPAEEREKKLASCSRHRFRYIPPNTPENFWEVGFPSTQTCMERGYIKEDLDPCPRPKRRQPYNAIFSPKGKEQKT

What was measured:
SAMHD1 (endogenous) = SAMHD1 (endogenous) (UniProt Q9Y3Z3); test: pull-down; settings: Pull-down: 40 pmol biotin-DNA on streptavidin beads, 10 mM Tris-HCl pH 7.5, 100 mM NaCl, 10% glycerol, 10 ug/mL BSA, 0.05% NP40, 0.35% CHAPS, 4 C overnight, protein in an extract
[1] = target: FLAG-SAMHD1 (332-384) peptide, non-acetylated (UniProt Q9Y3Z3); test: EMSA; settings: 0.2 uM ssDNA, dose-dependent shift, 250 uM dNTP, EMSA: 25 mM Tris-Cl, 50 mM KCl, 4.2 mM MgCl2, 5% glycerol, 1 mM EDTA, pH 7.9, 30 min, room temperature, protein details: N-terminal FLAG (DYKDDDDK), label: 3'-biotin, single-stranded DNA
CtIP (endogenous) = CtIP (endogenous) (UniProt Q99708); test: pull-down; settings: Pull-down: 40 pmol biotin-DNA on streptavidin beads, 10 mM Tris-HCl pH 7.5, 100 mM NaCl, 10% glycerol, 10 ug/mL BSA, 0.05% NP40, 0.35% CHAPS, 4 C overnight, protein in an extract, label: 3'-biotin, single-stranded DNA
[2] = target: FLAG-SAMHD1 (332-384) peptide, non-acetylated (UniProt Q9Y3Z3); test: pull-down; settings: 8 ug peptide; Pull-down: 40 pmol biotin-DNA on streptavidin beads, 10 mM Tris-HCl pH 7.5, 100 mM NaCl, 10% glycerol, 10 ug/mL BSA, 0.05% NP40, 0.35% CHAPS, 4 C overnight; protein details: N-terminal FLAG (DYKDDDDK); label: 3'-biotin; single-stranded DNA
SAMHD1-GFP (300-465) = SAMHD1-GFP (300-465) (UniProt Q9Y3Z3); test: pull-down; settings: 293T lysate, increased after IR; Pull-down: 40 pmol biotin-DNA on streptavidin beads, 10 mM Tris-HCl pH 7.5, 100 mM NaCl, 10% glycerol, 10 ug/mL BSA, 0.05% NP40, 0.35% CHAPS, 4 C overnight; protein in a lysate after overexpression; residues 300-465; protein details: GFP, myc-NLS; label: 3'-biotin; single-stranded DNA
SAMHD1-GFP K354Q = SAMHD1-GFP K354Q (UniProt Q9Y3Z3); test: pull-down; settings: 293T lysate, Pull-down: 40 pmol biotin-DNA on streptavidin beads, 10 mM Tris-HCl pH 7.5, 100 mM NaCl, 10% glycerol, 10 ug/mL BSA, 0.05% NP40, 0.35% CHAPS, 4 C overnight, protein in a lysate after overexpression, protein details: GFP
SAMHD1-GFP K354R = SAMHD1-GFP K354R (UniProt Q9Y3Z3); test: pull-down; settings: 293T lysate, Pull-down: 40 pmol biotin-DNA on streptavidin beads, 10 mM Tris-HCl pH 7.5, 100 mM NaCl, 10% glycerol, 10 ug/mL BSA, 0.05% NP40, 0.35% CHAPS, 4 C overnight, protein in a lysate after overexpression, protein details: GFP
SAMHD1-GFP WT = SAMHD1-GFP WT (UniProt Q9Y3Z3); test: pull-down; settings: 293T lysate, increased after IR, Pull-down: 40 pmol biotin-DNA on streptavidin beads, 10 mM Tris-HCl pH 7.5, 100 mM NaCl, 10% glycerol, 10 ug/mL BSA, 0.05% NP40, 0.35% CHAPS, 4 C overnight, protein in a lysate after overexpression, protein details: GFP
[3] = label: 3'-biotin, single-stranded DNA

## CCTCGAGCGATCCGTCCTAGCAAGC (double strand) [dsDNA blunt (oligos 1 and 2)]
SAMHD1 (endogenous); 293T lysate, label: 3'-biotin on strand 2
  binding result: no binding

## GCTTGCTAGGACGGATCGCTCGAGG [ssDNA (oligo 2)]
[1]
  binding result: binds
CtIP (endogenous); 293T lysate, increased after IR
  binding result: binds
CtIP (endogenous); SAMHD1-depleted 293T lysate, IR, rescued by SAMHD1-GFP WT and K354R, not K354Q
  binding result: binds more weakly
CtIP (endogenous); SIRT1-depleted 293T lysate, IR
  binding result: binds more weakly
[2]
  binding result: binds
SAMHD1 (endogenous); 293T lysate, increased after 10 Gy IR, order 5' overhang > ssDNA > 3' overhang, label: 3'-biotin, single-stranded DNA
  binding result: binds
SAMHD1 (endogenous); SIRT1-depleted 293T lysate, IR, label: 3'-biotin, single-stranded DNA
  binding result: binds more weakly
SAMHD1-GFP (300-465)
  binding result: binds
SAMHD1-GFP K354Q; [3]
  binding result: binds more weakly
SAMHD1-GFP K354R; [3]
  binding result: binds
SAMHD1-GFP WT; [3]
  binding result: binds

## GCTTGCTAGGACGGATCGCTCGAGGTTTACCCTGCTATACGGTGA / CCTCGAGCGATCCGTCCTAGCAAGC [3' overhang DNA (oligos 5 and 1)]
SAMHD1 (endogenous); 293T lysate, below ssDNA, increased after IR, label: 3'-biotin on strand 1
  binding result: binds more weakly

## TCACCGTATAGCAGGGTAAACCTCGAGCGATCCGTCCTAGCAAGC / GCTTGCTAGGACGGATCGCTCGAGG [5' overhang DNA (oligos 4 and 3)]
SAMHD1 (endogenous); 293T lysate, strongest substrate, increased after IR, label: 3'-biotin on strand 1
  binding result: binds
SAMHD1-GFP K354Q; label: 3'-biotin on strand 1
  binding result: binds more weakly
SAMHD1-GFP K354R; label: 3'-biotin on strand 1
  binding result: binds
SAMHD1-GFP WT; label: 3'-biotin on strand 1
  binding result: binds
